Laboratory results as given in article doi:10.1101/830802.
These are yes or no findings as the source states them, for the method shown. Binding seen in cells or lysates may run through a third protein. Binding can be weak; no strength is given.

Amino acid sequences for entries named in this document (tags omitted). A change or cut given only in a name is not applied to a line headed by its entry.
UniProt O75061: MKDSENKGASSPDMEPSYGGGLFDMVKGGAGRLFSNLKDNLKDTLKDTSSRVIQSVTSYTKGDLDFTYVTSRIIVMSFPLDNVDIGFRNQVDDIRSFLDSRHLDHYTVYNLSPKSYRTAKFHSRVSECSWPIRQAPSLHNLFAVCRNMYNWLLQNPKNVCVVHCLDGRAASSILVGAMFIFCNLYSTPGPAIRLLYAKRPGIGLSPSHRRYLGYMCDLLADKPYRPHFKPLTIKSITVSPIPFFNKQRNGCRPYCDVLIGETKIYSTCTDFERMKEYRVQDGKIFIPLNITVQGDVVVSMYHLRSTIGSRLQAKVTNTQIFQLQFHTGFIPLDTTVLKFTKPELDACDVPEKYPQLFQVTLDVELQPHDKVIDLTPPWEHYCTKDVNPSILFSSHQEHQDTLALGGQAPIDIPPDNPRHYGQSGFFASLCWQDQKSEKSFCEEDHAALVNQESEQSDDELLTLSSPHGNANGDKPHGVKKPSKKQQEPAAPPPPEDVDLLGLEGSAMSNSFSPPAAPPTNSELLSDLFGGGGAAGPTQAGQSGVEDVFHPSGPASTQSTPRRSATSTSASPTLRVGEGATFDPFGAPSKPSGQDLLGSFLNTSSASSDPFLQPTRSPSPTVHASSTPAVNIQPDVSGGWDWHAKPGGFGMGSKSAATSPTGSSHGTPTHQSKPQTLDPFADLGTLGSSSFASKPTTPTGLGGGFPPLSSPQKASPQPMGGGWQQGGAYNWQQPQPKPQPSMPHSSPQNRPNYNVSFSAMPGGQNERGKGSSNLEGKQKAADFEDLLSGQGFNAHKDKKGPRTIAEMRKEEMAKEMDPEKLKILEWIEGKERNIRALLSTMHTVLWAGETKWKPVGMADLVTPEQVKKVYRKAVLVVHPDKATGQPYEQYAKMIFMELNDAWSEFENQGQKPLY
UniProt Q9UJY4: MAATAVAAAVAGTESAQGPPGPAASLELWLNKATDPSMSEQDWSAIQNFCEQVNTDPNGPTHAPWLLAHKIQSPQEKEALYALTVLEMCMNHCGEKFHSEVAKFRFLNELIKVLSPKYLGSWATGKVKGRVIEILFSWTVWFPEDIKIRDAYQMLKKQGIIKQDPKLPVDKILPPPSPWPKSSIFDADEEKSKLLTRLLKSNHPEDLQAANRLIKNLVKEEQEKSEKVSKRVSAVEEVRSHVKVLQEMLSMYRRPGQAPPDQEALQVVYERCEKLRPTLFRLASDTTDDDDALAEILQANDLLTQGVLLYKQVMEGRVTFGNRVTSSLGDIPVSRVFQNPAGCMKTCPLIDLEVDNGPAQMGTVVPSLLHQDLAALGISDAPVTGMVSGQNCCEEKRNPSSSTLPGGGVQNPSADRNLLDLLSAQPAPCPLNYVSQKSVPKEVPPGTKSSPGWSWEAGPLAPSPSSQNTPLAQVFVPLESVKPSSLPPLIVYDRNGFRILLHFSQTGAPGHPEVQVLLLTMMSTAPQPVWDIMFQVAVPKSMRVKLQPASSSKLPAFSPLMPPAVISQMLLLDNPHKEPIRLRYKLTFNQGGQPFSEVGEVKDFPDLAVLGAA

Target: recombinant 3xFlag-WT Auxilin (UniProt O75061)
Assay: pull-down

binding: binds
Substance: recombinant GST-GGA2 (from UniProt Q9UJY4 1-613)
